Library screening results

Data taken from ChEMBL document CHEMBL3988442, “University of Dundee, Small-Polar-MMV Screening Library” (2021).

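Viability assay of Plasmodium falciparum sporozoites; the read-out is not stated. The concentration is filed as 10 mM, unlikely as a test dose, so the dose is not known. Direction is inferred from retests: higher values go with lower viability. Strong results were mostly tested again. Of about 34,000 compounds tested this way, about 280 (0.84%) reached 50% or more in at least one test.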

Results are given as percent effect. The controls that fix the scale are not given in the record; negative values are as filed. Compounds were drawn at random from those tested, without regard to their results. Two or more numbers in one place are separate tests of the same structure; such repeats can differ widely.

| SMILES | percent effect |
|---|---|
| `CCN(CC)c1ccc(CNC(=O)c2cnc(C)cn2)cn1` | 0.2286% |
| `CN(C)c1nc(NCCc2ccnn2C)ncc1F` | -23.04% and -13.67% |
| `Cc1noc(C(C)C)c1C(=O)NS(=O)(=O)c1cccnc1` | 3.301% |
| `O=C(NCc1ccco1)N(CCCO)C1CCCc2ccccc21` (configuration not stated) | 12.32% |
| `c1cnn(CC2CCCCN2Cc2nc(-c3ccoc3)no2)c1` (configuration not stated) | 15.97% |
| `Cc1cc(C)n(CC2CN(Cc3nc4ccccc4s3)CCO2)n1` (configuration not stated) | 66.96% and 52.93% and 45.91% |
| `CNc1cc(C)nc(C2CN(Cc3cncs3)CCO2)c1` (configuration not stated) | -5.399% |
| `COCCN(Cc1sccc1C)c1nc(C)nc2sccc12` | -8.688% and 3.638% |
| `CC(C)CCC(=O)Nc1ccc2oc(=O)n(CCN(C)C)c2c1` | -25.49% |
| `CC(C)(C)n1nnnc1CN(Cc1ccccc1)Cc1ccccc1Cl` | -6.182% |
| `CC(C)Oc1cc(N2C[C@@H](C)O[C@@H](C)C2)nc(N)n1` | -8.824% |
| `O=c1c2cccnc2cnn1CC(O)c1cccc(C(F)(F)F)c1` (configuration not stated) | 9.793% |
| `CNC(=O)c1sc2ccccc2c1CC1CCCCN1Cc1ncc[nH]1` (configuration not stated) | 2.67% |
| `O=C(NCc1cccnc1-n1cncn1)C1CC2(CCNCC2)CN1` (configuration not stated) | -18.31% |
| `Cc1c[nH]c(C2COCCN2C(=O)c2ccc(=O)[nH]n2)n1` (configuration not stated) | 7.455% |
| `Cc1cc(C)n(C2CCCN(C(=O)Cc3cccc(F)c3)C2)n1` (configuration not stated) | -5.554% |
| `Cc1cnn(CCNCc2nc(CNC(=O)c3ccccc3)no2)c1` | 11.3% |
| `CCc1nnc(CN(C)C(=O)C2CC(=O)N(C3CC3)C2)o1` (configuration not stated) | -10.92% |
| `Cn1cc(CN2CCCCC2c2ccc(-c3cccc(F)c3)nc2)cn1` (configuration not stated) | -9.106% |
| `CC(=O)N(Cc1ncc(C)o1)C1CCN(CCc2cccs2)C1` (configuration not stated) | 4.454% |
| `Cc1noc(C)c1CCC(=O)N1CCCN(CC(N)=O)CC1` | 0.0993% |
| `CC(CO)(NC(=O)Nc1nnc(C(F)F)s1)C1CC1` (configuration not stated) | 2.558% |
| `Cc1nc(CN2CCc3cncnc3C2)oc1C` | -6.494% |
| `CCc1nc(C)ncc1C(=O)N1CCCC(n2nc(C)nc2C)C1` (configuration not stated) | 6.763% |
| `[H][C@]12CN(Cc3ccccc3Br)C[C@]1([H])OCC(=O)N2` | 5.184% |
| `Cc1nnc(C(C)N2CCN(Cc3ccc(C(F)(F)F)cc3)CC2)o1` (configuration not stated) | -239.5% |
| `CC(=O)N1CCC(c2cc(C(F)(F)F)n3ccnc3n2)CC1` | -12.72% |
| `COCCN1C[C@@H](C)[C@@]2(COCCN(C(=O)Cc3ccccc3)C2)C1.O=C(O)C(F)(F)F` | 8.117% |
| `Cc1nccc(N2CCCC2CCNS(C)(=O)=O)n1` (configuration not stated) | -4.184% |
| `CN(Cc1ccc(C#N)cc1)Cc1noc(C(C)(C)C)n1` | -15.7% |
| `Cc1c(C(=O)N2CCCC(C(=O)c3nccn3C)C2)c[nH]c(=O)c1C#N` (configuration not stated) | -4.579% |
| `CCn1cnnc1CNC(=O)c1cc(Cl)c(I)cc1OC` | -3.297% |
| `Cc1nc(CC(=O)N2CCN(CCOc3ccccc3)CC2)cs1` | -8.27% |
| `COCCn1c(-c2cccc(OC)c2)cnc1NC(=O)NC1CCCC1` | 10.08% |
| `Cc1cccc(C(=O)N2CCCN(Cc3cnn(C)c3)CC2)n1` | 10.95% |
| `Cc1nc(CCN(C)C(=O)C2COc3ccccc3C2)no1` (configuration not stated) | -7.197% |
| `Cc1cc(C)c(CNC(=O)C2COc3ccccc3C2)c(=O)[nH]1` (configuration not stated) | -2.738% |
| `CCc1nnc(Nc2cc(C)nc(C3CCN(c4cnccn4)C3)n2)s1` (configuration not stated) | 2.061% |
| `CNC(=O)C1(c2cnccn2)CCCN1C(=O)c1ncccc1C` (configuration not stated) | 4.383% |
| `CNC(=O)C1CCCCN1C(=O)c1n[nH]c(=O)c2ccccc12` (configuration not stated) | 2.059% |
| `CNc1cc(C(=O)N2CCOC(C(=O)NC3CCCC3)C2)ccn1` (configuration not stated) | -1.098% |
| `CC(C)CC(=O)NC1CC2(CCN(CCF)CC2)Oc2ccccc21.O=C(O)C(F)(F)F` (configuration not stated) | -4.991% |
| `CCn1ccnc1CN1CCOC(Cn2cccn2)C1` (configuration not stated) | 7.201% |
| `COc1ccc(NC(=O)C2OC(c3cccs3)=NN2C(C)=O)cc1OC` (configuration not stated) | -15.76% |
| `O=C(NCCc1ccn(-c2ccccc2)n1)N1CCC1` | -5.087% |
| `CSCC(=O)NCc1cc(Br)ccc1OC(F)F` | -22.55% |
| `O=C(O)C(F)(F)F.[H][C@@]12CN(CC)C[C@]1(C(=O)N(C)C)CCC21CCN(C(=O)NC(C)C)CC1` | -12.18% |
| `Cc1cc(C(C)NC(=O)N2CCC(n3cncn3)CC2)c(C)s1` (configuration not stated) | -13.08% |

The last 4 entries again:

With O=C(NCCc1ccn(-c2ccccc2)n1)N1CCC1 the screen gave -5.087%.
With CSCC(=O)NCc1cc(Br)ccc1OC(F)F the screen gave -22.55%.
With O=C(O)C(F)(F)F.[H][C@@]12CN(CC)C[C@]1(C(=O)N(C)C)CCC21CCN(C(=O)NC(C)C)CC1 the screen gave -12.18%.
With Cc1cc(C(C)NC(=O)N2CCC(n3cncn3)CC2)c(C)s1 (configuration not stated) the screen gave -13.08%.